These are yes or no findings as the source states them, for the method shown. Binding seen in cells or lysates may run through a third protein. Some binding calls cover weakened binding; strength is not graded here. Where a sequence is shown, tags or fusion partners need not be part of it.

Amino acid sequences for entries named in this document (tags omitted).
UniProt Q7Z434: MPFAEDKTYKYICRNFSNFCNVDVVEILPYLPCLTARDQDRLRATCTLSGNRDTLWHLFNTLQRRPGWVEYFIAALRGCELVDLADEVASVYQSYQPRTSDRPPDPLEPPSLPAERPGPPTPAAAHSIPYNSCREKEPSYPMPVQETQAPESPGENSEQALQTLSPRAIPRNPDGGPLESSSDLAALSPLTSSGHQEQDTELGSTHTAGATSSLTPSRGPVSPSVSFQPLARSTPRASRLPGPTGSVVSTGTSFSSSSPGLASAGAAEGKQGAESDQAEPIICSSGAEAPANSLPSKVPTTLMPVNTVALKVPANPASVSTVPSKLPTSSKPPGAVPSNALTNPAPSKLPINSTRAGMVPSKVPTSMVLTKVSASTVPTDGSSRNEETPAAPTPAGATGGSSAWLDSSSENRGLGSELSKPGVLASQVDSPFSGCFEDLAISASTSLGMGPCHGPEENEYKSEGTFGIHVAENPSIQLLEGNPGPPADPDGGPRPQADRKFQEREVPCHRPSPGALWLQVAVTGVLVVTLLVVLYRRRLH

This assay addresses HA-tagged MAVS (human) (UniProt Q7Z434). The assay is described as follows: co-IP; 293T cells cotransfected with HA-tagged MAVS and Flag-tagged TRIM28 or its mutants, 48 h; RIPA lysate; immunoprecipitated with an anti-HA antibody on Protein A/G magnetic beads, 2 h at 4 °C; immunoblot with an anti-Flag antibody. (In general: In western blotting, separated proteins are transferred to a membrane and probed.)

B1: TRIM28-CA (C65A/C68A), Flag-tagged (protein, UniProt Q13263 1-835)
chain: MAASAAAASAAAASAASGSPGPGEGSAGGEKRSTAPSAAASASASAAASSPAGGGAEALELLEHAGVARERLRPEREPRLLPCLHSACSACLGPAAPAAANSSGDGGAAGDGTVVDCPVCKQQCFSKDIVENYFMRDSGSKAATDAQDANQCCTSCEDNAPATSYCVECSEPLCETCVEAHQRVKYTKDHTVRSTGPAKSRDGERTVYCNVHKHEPLVLFCESCDTLTCRDCQLNAHKDHQYQFLEDAVRNQRKLLASLVKRLGDKHATLQKSTKEVRSSIRQVSDVQKRVQVDVKMAILQIMKELNKRGRVLVNDAQKVTEGQQERLERQHWTMTKIQKHQEHILRFASWALESDNNTALLLSKKLIYFQLHRALKMIVDPVEPHGEMKFQWDLNAWTKSAEAFGKIVAERPGTNSTGPAPMAPPRAPGPLSKQGSGSSQPMEVQEGYGFGSGDDPYSSAEPHVSGVKRSRSGEGEVSGLMRKVPRVSLERLDLDLTADSQPPVFKVFPGSTTEDYNLIVIERGAAAAATGQPGTAPAGTPGAPPLAGMAIVKEEETEAAIGAPPTATEGPETKPVLMALAEGPGAEGPRLASPSGSTSSGLEVVAPEGTSAPGGGPGTLDDSATICRVCQKPGDLVMCNQCEFCFHLDCHLPALQDVPGEEWSCSLCHVLPDLKEEDGSLSLDGADSTGVVAKLSPANQRKCERVLLALFCHEPCRPLHQLATDSTFSLDQPGGTLDLTLIRARLQEKLSPPYSSPQEFAQDVGRMFKQFNKLTEDKADVQSIIGLQRFFETRMNEAFGDTKFSAVLVEPPPMSLPGAGLSSQELSGGPGDGP
With B1, the binding entry was “binds”.
